Data from paper PMC11148040.

Chains of the proteins cited; added tags and fusions are not shown.
UniProt A0A125YYV7: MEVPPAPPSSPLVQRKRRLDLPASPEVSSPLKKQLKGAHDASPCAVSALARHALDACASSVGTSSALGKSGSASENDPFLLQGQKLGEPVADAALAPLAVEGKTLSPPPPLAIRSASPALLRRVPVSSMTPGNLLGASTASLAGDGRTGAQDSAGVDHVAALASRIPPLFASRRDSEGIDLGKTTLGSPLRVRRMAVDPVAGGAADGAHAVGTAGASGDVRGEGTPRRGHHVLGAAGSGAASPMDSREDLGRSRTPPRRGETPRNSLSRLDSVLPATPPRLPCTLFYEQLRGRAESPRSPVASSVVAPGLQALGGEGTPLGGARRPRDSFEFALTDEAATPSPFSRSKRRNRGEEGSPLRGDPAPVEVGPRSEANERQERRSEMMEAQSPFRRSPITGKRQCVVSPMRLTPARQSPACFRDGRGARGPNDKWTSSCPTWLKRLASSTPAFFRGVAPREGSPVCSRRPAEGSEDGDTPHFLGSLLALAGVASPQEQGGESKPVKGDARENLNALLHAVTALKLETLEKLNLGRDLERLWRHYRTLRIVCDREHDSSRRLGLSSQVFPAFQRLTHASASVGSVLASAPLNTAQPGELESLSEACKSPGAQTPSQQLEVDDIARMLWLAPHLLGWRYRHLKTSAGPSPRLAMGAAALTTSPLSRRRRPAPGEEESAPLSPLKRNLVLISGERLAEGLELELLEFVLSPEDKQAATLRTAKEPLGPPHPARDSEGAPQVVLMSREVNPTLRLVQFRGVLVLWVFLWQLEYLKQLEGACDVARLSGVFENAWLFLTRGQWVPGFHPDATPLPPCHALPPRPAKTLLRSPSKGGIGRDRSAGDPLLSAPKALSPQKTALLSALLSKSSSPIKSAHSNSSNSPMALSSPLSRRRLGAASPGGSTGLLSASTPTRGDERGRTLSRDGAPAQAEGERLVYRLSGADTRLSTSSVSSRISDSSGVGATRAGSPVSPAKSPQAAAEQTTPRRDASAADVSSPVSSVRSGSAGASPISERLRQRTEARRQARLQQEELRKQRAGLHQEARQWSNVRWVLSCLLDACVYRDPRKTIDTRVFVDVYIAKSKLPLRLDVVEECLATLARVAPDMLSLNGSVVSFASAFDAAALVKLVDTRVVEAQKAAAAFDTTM
UniProt A0A125YSP0: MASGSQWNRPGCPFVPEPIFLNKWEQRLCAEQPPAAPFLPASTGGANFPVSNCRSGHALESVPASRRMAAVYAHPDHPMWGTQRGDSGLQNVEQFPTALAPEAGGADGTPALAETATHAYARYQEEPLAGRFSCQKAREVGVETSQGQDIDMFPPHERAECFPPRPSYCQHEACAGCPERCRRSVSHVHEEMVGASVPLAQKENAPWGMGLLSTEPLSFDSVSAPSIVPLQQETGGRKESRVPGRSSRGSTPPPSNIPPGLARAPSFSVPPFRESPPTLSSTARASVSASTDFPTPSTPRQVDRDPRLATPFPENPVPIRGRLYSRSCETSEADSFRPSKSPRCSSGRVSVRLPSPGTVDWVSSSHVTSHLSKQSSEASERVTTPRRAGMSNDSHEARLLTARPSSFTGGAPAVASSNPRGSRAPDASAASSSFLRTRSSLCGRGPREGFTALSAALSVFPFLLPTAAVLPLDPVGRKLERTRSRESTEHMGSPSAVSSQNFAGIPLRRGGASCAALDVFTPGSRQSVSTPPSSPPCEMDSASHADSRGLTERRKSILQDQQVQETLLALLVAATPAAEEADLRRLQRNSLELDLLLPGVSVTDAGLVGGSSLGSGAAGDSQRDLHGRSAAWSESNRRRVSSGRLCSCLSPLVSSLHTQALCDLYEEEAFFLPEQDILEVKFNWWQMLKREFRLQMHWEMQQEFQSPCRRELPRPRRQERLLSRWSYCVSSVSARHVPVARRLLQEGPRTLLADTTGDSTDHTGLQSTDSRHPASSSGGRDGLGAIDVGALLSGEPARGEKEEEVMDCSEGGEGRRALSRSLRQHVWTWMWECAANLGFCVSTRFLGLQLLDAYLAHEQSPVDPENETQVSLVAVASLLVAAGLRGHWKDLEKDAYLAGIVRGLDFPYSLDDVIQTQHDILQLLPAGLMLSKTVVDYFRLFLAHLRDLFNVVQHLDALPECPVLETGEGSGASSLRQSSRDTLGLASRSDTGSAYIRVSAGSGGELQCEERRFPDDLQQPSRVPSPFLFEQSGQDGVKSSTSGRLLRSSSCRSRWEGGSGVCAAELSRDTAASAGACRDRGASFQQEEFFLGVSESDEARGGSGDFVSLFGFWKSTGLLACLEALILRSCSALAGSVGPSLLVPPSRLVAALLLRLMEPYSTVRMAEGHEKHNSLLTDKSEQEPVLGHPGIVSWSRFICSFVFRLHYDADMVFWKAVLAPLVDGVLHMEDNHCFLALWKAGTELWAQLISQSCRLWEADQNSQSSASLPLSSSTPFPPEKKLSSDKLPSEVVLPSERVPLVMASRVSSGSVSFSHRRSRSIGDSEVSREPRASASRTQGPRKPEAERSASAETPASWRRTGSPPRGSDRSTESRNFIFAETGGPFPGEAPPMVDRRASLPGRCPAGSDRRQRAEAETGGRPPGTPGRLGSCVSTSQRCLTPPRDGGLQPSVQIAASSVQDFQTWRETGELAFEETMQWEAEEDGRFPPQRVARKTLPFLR

Legend:
[1] = molecular target: ^HATgCyc4 (Toxoplasma gondii); assay: affinity purification with mass spectrometry; ^HATgCyc4 complexes immunoisolated on α-HA magnetic beads from extracted proteins (soluble fraction) of 10^9 tachyzoites, parental strain as control; SAINT analysis of spectral counts
[2] = molecular target: TGME49_247040^myc (Toxoplasma gondii); assay: affinity purification with mass spectrometry; TGME49_247040^myc (TgiRD1^myc) complexes isolated on α-myc magnetic beads from extracted proteins of 10^9 tachyzoites, parental strain as control; two biological replicates; SAINT analysis

Substance | binding [1] | binding [2]
TgiRD1 (TGME49_247040) (from UniProt A0A125YYV7 1-1140) | binds | 
TgCyc4 (TGME49_249880) (from UniProt A0A125YSP0 1-1500) |  | binds weakly

No constants are given. Whether binding was seen depends on the method and setting. In cells and extracts the contact can be indirect. These calls come from enrichment with a bait or labelling near it, and not all partners need be listed.
